The other results are listed elsewhere or left out. Single values are uncertain, as repeats are few or missing.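 Imaging used 1,536-well plates; nuclei positive for cleaved PARP by antibody were divided by total DNA-stained nuclei to yield the apoptosis fraction. Doses for screening kept most cells viable, and cell lines differ markedly in resting and induced cleaved-PARP levels.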
System: G361
Assay: cleaved PARP positive nuclei fraction relative to DMSO control; melanoma cells; higher = more apoptosis
Details: library dose: low library concentration; 72 h

Q: Which “cleaved PARP positive nuclei fraction” value does the source give for C[C@]1(O)C[C@@H](c2nc(-c3ccc4ccc(-c5ccccc5)nc4c3)c3c(N)nccn32)C1 + CS(=O)(=O)CCNCc1ccc(-c2ccc3ncnc(Nc4ccc(OCc5cccc(F)c5)c(Cl)c4)c3c2)o1 [lapatinib] (first compound 0.4 µM, partner dose 0.8 µM) here?
A: The value was 119%.

Q: Cn1sc(=O)n(Cc2ccccc2)c1=O + CNC(=O)c1cc(Oc2ccc(NC(=O)Nc3ccc(Cl)c(C(F)(F)F)c3)cc2)ccn1 [sorafenib] (first compound 0.4 µM, partner dose 0.4 µM) was tested. Which “cleaved PARP positive nuclei fraction” value did it give?
A: Its value is 70.2%.

Q: With CN(c1ncccc1CNc1nc(Nc2ccc3c(c2)CC(=O)N3)ncc1C(F)(F)F)S(C)(=O)=O + CS(=O)(=O)CCNCc1ccc(-c2ccc3ncnc(Nc4ccc(OCc5cccc(F)c5)c(Cl)c4)c3c2)o1 [lapatinib] (first compound 0.08 µM, partner dose 0.8 µM) as the compound, how does the “cleaved PARP positive nuclei fraction” value read?
A: The value was 158%.

Q: With CCCCCCCCc1ccc(CCC(N)(CO)CO)cc1 [fingolimod] + CC(=O)O[C@@]12CO[C@@H]1C[C@H](O)[C@@]1(C)C(=O)[C@H](O)C3=C(C)[C@@H](OC(=O)[C@H](O)[C@@H](NC(=O)OC(C)(C)C)c4ccccc4)C[C@@](O)([C@@H](OC(=O)c4ccccc4)[C@H]21)C3(C)C [Docetaxel] (first compound 2 µM, partner dose 0.0001 µM) as the compound, how does the “cleaved PARP positive nuclei fraction” value read?
A: Its value is 541%.

Q: How did the “cleaved PARP positive nuclei fraction” value turn out when CCCCCCCCc1ccc(CCC(N)(CO)CO)cc1 [fingolimod] + COCC[n+]1c2c(n(Cc3cnccn3)c1C)C(=O)c1ccccc1C2=O [YM155] (first compound 2 µM, partner dose 0.0004 µM) was run?
A: The value was 78.5%.

Q: Which “cleaved PARP positive nuclei fraction” value does the source give for NC1(c2ccc(-c3nc4ccn5c(=O)[nH]nc5c4cc3-c3ccccc3)cc2)CCC1 + C[C@@H](Oc1cc(-c2cnn(C3CCNCC3)c2)cnc1N)c1c(Cl)ccc(F)c1Cl [Crizotinib] (first compound 0.4 µM, partner dose 0.2 µM) here?
A: The value was 163%.

Q: Which “cleaved PARP positive nuclei fraction” value does the source give for C[C@]1(O)C[C@@H](c2nc(-c3ccc4ccc(-c5ccccc5)nc4c3)c3c(N)nccn32)C1 + Cc1cc(Nc2cc(N3CCN(C)CC3)nc(/C=C/c3ccccc3)n2)n[nH]1 [ENMD2076] (first compound 0.4 µM, partner dose 0.04 µM) here?
A: The value was 41.2%.

Q: How did the “cleaved PARP positive nuclei fraction” value turn out when Cn1sc(=O)n(Cc2ccccc2)c1=O + C[C@@H](Oc1cc(-c2cnn(C3CCNCC3)c2)cnc1N)c1c(Cl)ccc(F)c1Cl [Crizotinib] (first compound 0.4 µM, partner dose 0.2 µM) was run?
A: Its value is 97.2%.

Q: For NC(=O)c1ccc(N(C(N)=O)c2c(F)cccc2F)nc1-c1ccc(F)cc1F + CCCCCCCCc1ccc(CCC(N)(CO)CO)cc1 [fingolimod] (first compound 0.4 µM, partner dose 2 µM), which “cleaved PARP positive nuclei fraction” value is on record?
A: Its value is 281%.

Q: For NC1(c2ccc(-c3nc4ccn5c(=O)[nH]nc5c4cc3-c3ccccc3)cc2)CCC1 + CO[C@H]1C[C@@H]2CC[C@@H](C)[C@@](O)(O2)C(=O)C(=O)N2CCCC[C@H]2C(=O)O[C@H]([C@H](C)C[C@@H]2CC[C@@H](OCCO)[C@H](OC)C2)CC(=O)[C@H](C)/C=C(\C)[C@@H](O)[C@@H](OC)C(=O)[C@H](C)C[C@H](C)/C=C/C=C/C=C/1C [everolimus] (first compound 0.4 µM, partner dose 0.02 µM), which “cleaved PARP positive nuclei fraction” value is on record?
A: The value was 223%.

Reference: the supplement of paper PMC4604168 (melanoma cell lines)
